{"source": "PubChem BioAssay AID1508588 | Peter MacCallum Cancer Centre, 2020", "aim": "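Knock-downs boosting vemurafenib effects on melanoma cell growth or lactate release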 (primary screen)", "cells": "human WM266.4 melanoma cells (BRAF V600 mutant)", "knock-down reagent": "siRNA pool against human genes, 40 nM", "time to read-out": "96 h from transfection to read-out", "conditions": "vemurafenib 300 nM (about IC25), added 48 h after transfection, for 48 h; comparison arm got DMSO vehicle only", "measurement": "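Ratios to non-targeting siRNA for cell gain, counted as DAPI nuclei after minus before drug and averaged over two replicates, and for absorbance-read medium lactate per cell; both binned into fold-change classes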", "direction": "cell gain with vemurafenib: higher = more cell gain than with non-targeting siRNA; lactate per cell with vemurafenib: higher = more lactate made per cell", "hit rule": "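Enhancement is called by pairing each knock-down's vehicle-arm and drug-arm fold-change classes for viability or glycolysis; which class combinations qualify is not given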", "meaning of the calls": "active = enhances vemurafenib effect; inactive = no enhancement seen", "note": "Shown is an unselected part of about 18,000 reagents tested. 790 of them (4.4%) count as active. 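Calls rest on a combination of fold-change classes in drug and vehicle arms, not all shown here.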"}
{"gene": "SNX7", "cell gain with vemurafenib": 0.1, "lactate per cell with vemurafenib": 2.52, "Call": "inactive"}
{"gene": "NUDT1", "cell gain with vemurafenib": 0.41, "lactate per cell with vemurafenib": 0.68, "Call": "inactive"}
{"gene": "GLO1", "cell gain with vemurafenib": 0.62, "lactate per cell with vemurafenib": 0.62, "Call": "inactive"}
{"gene": "CLK4", "cell gain with vemurafenib": 0.9, "lactate per cell with vemurafenib": 0.34, "Call": "inactive"}
{"gene": "CDHR1", "cell gain with vemurafenib": 0.53, "lactate per cell with vemurafenib": 0.92, "Call": "inactive"}
{"gene": "RASGRP4", "cell gain with vemurafenib": 1.15, "lactate per cell with vemurafenib": 1.25, "Call": "inactive"}
{"gene": "OR2H1", "cell gain with vemurafenib": 0.6, "lactate per cell with vemurafenib": 0.55, "Call": "inactive"}
{"gene": "GOLM2", "cell gain with vemurafenib": 0.13, "lactate per cell with vemurafenib": 0.35, "Call": "active"}
{"gene": "OR6B2", "cell gain with vemurafenib": 0.66, "lactate per cell with vemurafenib": 0.6, "Call": "inactive"}
{"gene": "PEX2", "cell gain with vemurafenib": 0.58, "lactate per cell with vemurafenib": 0.6, "Call": "inactive"}
{"gene": "TDRD10", "cell gain with vemurafenib": 0.92, "lactate per cell with vemurafenib": 0.35, "Call": "inactive"}
{"gene": "ADAM28", "cell gain with vemurafenib": 0.96, "lactate per cell with vemurafenib": 0.6, "Call": "inactive"}
{"gene": "RNASE4", "cell gain with vemurafenib": 0.63, "lactate per cell with vemurafenib": 1.68, "Call": "inactive"}
{"gene": "PACC1", "cell gain with vemurafenib": 0.57, "lactate per cell with vemurafenib": 0.78, "Call": "inactive"}
{"gene": "OR52A4P", "cell gain with vemurafenib": 0.8, "lactate per cell with vemurafenib": 0.4, "Call": "inactive"}
{"gene": "TNFRSF21", "cell gain with vemurafenib": 0.22, "lactate per cell with vemurafenib": 1.29, "Call": "inactive"}
